{"source": "PubChem BioAssay AID504467", "about": "(National Center for Advancing Translational Sciences (NCATS), 2011)", "note": "In all, about 330,000 compounds went through this assay and about 7,700 (2.3%) were called active. Inconclusive results, whose numbers are uncertain, are shown with a selection of clear calls. Calls follow the shape of the dose curve; as a rule, active = well fitted inhibition curve with a large enough effect; inconclusive = small, poorly fitted or top-dose-only effect, or effect the other way; inactive = flat fitted curve, though single readings scatter. Where the call is inconclusive, the potency comes from a doubtful curve fit. Potency is read from the fitted curve at half-maximal effect.", "data": [{"assay": "qHTS screen for small molecules that inhibit ELG1-dependent DNA repair in human embryonic kidney (HEK293T) cells expressing luciferase-tagged ELG1; also: nearly all actives have a fitted effect of over 55% in size", "details": "HEK293T ELG1-luciferase reporter, luminescence, 16 h, DNA damage induced by 5-fluorouridine; series mostly up to 46.1 µM", "in_short": "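Cells (2,000 per well) received 5-fluorouridine plus test compound or DMSO and were incubated 16 hr at 37 °C, 5% CO2. Luciferase activity was read by luminescence 30 min after ONE-Glo addition; signal suppression marked inhibition of damage-induced ELG1 function.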", "values": [{"smiles": "CCOc1ccc(OCC)c(-c2c(=O)n(OCc3ccc(C(C)(C)C)cc3)c3ccccc3[n+]2[O-])c1", "Potency": "inconclusive: 32.6 µM [inhibitor, partial curve, poor fit]"}, {"smiles": "O=C1C(=O)N(c2ccccn2)C(c2ccc(F)cc2)/C1=C(/O)c1ccc(Br)cc1", "note": "(configuration not stated)", "Potency": "inactive"}, {"smiles": "CCOCc1nnc(NC(=O)CS(=O)(=O)c2ccc(C)cc2)s1", "Potency": "inactive"}, {"smiles": "O=C(CCCN1C(=O)C(c2ccccc2)Oc2cccnc21)NCc1ccc(F)cc1", "note": "(configuration not stated)", "Potency": "inactive"}, {"smiles": "COc1ccc(OCc2ccc(C(=O)NN)cc2)cc1", "Potency": "inconclusive: 20.6 µM [activator, partial curve, poor fit]"}, {"smiles": "O=C1CN(C(=S)Nc2ccc(OC(F)F)cc2)CCN1", "Potency": "inactive"}, {"smiles": "C(=N\\N1CCN(c2ccccn2)CC1)/c1cccc2ccccc12", "Potency": "inconclusive: 29.1 µM [inhibitor, single point]"}, {"smiles": "CCN(CC1CCCN(CCc2cccc(F)c2)C1)C(=O)c1cc2ccccc2o1", "note": "(configuration not stated)", "Potency": "inactive"}, {"smiles": "O=C(c1ccc(N2C(=O)C3C4CC(C(Br)C4Br)C3C2=O)cc1)N1CCCCC1", "note": "(configuration not stated)", "Potency": "inactive"}, {"smiles": "NS(=O)(=O)c1ccc(CCNC(=O)CN2C(=O)COc3ccc(S(=O)(=O)N4CCCC4)cc32)cc1", "Potency": "inconclusive: 29.1 µM [activator, single point]"}, {"smiles": "CC(CNC(=O)Cn1ccc2cc(S(=O)(=O)N3CCCC3)ccc21)c1ccccc1", "note": "(configuration not stated)", "Potency": "inactive"}, {"smiles": "COCCCn1c(Cc2csc(Nc3cccc(Cl)c3)n2)nnc1SCC(=O)OC1CCCCC1", "Potency": "inconclusive: 29.1 µM [inhibitor, single point]"}, {"smiles": "Cc1ccc(NC(=O)Cc2noc3ccccc23)cc1", "Potency": "inconclusive: 18.4 µM [activator, partial curve]"}, {"smiles": "Cc1nc(SCC(=O)N2CCNC2=O)c2ccccc2n1", "Potency": "inconclusive: 29.1 µM [inhibitor, partial curve, poor fit]"}, {"smiles": "CCC(=O)Nc1ccc(F)c(Cl)c1", "Potency": "inactive"}, {"smiles": "Cc1csc(=O)n1CCC(=O)OCC(=O)Nc1ccc(F)c(F)c1F", "Potency": "inactive"}, {"smiles": "CCN(CC)S(=O)(=O)c1ccc(N2CCCC2)c(C(=O)OCC(=O)/C(C#N)=C(\\C)N)c1", "Potency": "inconclusive: 18.4 µM [inhibitor, partial curve]"}, {"smiles": "C=CCc1cccc(/C=N/NC(=O)CNc2ccccc2OC)c1O", "Potency": "inconclusive: 11.6 µM [inhibitor, partial curve]"}, {"smiles": "Cc1nc(N2CCN(Cc3nc4ccccc4[nH]3)CC2)c2oc3ccccc3c2n1", "Potency": "inconclusive: 20.6 µM [inhibitor, partial curve]"}, {"smiles": "COC(=O)c1cc2occc2n1Cc1nc(-c2ccc(Cl)cc2)oc1C", "Potency": "inactive"}, {"smiles": "COc1ccccc1CNC(=O)/C=C/c1cc2c(cc1Br)OCO2", "Potency": "inconclusive: 6.51 µM [inhibitor, single point]"}, {"smiles": "CCOc1ncccc1C(=O)NCCN1C(=O)S/C(=C/c2cccs2)C1=O", "Potency": "inconclusive: 20.6 µM [inhibitor, single point]"}, {"smiles": "O=C(CSc1ncc(-c2ccccc2)[nH]1)Nc1cccc(O)c1", "Potency": "active: 16.4 µM"}, {"smiles": "COc1ccc(-c2csc(NC(=O)c3ccccc3OC)c2C(=O)O)cc1OC", "Potency": "inactive"}, {"smiles": "Cc1ccc(CNC(=O)c2ccc(N3CCC4(CC3)CC(c3ccccc3)=NO4)c(N)c2)cc1", "Potency": "inactive"}, {"smiles": "COc1ccc2oc(C(=O)OCC(=O)N(C)CC(=O)Nc3ccc(F)cc3)c(C)c2c1", "Potency": "inactive"}, {"smiles": "CCOC(=O)C1(Cc2cccc(OC)c2)CCN(C/C=C/c2ccccc2)CC1", "Potency": "inconclusive: 16.4 µM [inhibitor, single point]"}, {"smiles": "CN(C)CCCNc1c2ccccc2nc2ccccc12", "Potency": "inconclusive: 29.1 µM [inhibitor, single point]"}, {"smiles": "CCCCNCC(=O)Nc1sc(C)c(C)c1C(=O)OCC", "Potency": "inactive"}, {"smiles": "O=C(c1ccco1)n1nc(NCc2ccccc2)nc1NCc1ccccc1", "Potency": "inconclusive: 20.6 µM [inhibitor, single point]"}, {"smiles": "O=C(NS(=O)(=O)N1CCOCC1)C1=C(N2CCCC2)COC1=O", "Potency": "inconclusive: 23.1 µM [activator, partial curve, poor fit]"}, {"smiles": "COc1cc(NC(=S)N2CCc3ccccc3C2)cc(OC)c1", "Potency": "inactive"}, {"smiles": "NC(N)=NS(=O)(=O)c1ccc(N/C=C/C(=O)c2ccc(Cl)c(Cl)c2)cc1", "Potency": "inactive"}, {"smiles": "Cc1nnc(NC(=O)C(C)Sc2nncn2C)s1", "note": "(configuration not stated)", "Potency": "inactive"}, {"smiles": "COc1ccc(C)cc1NC(=O)CNC(C)C(=O)Nc1ccc(C(C)=O)cc1", "note": "(configuration not stated)", "Potency": "inconclusive: 29.1 µM [inhibitor, single point]"}, {"smiles": "CNC(=S)Nc1cccc(-c2cnc3ccccc3n2)c1", "Potency": "inconclusive: 9.2 µM [activator, partial curve]"}, {"smiles": "Cn1c(=O)c2ncn(CC(=O)Nc3nc(-c4ccc(Cl)cc4)cs3)c2n(C)c1=O", "Potency": "inconclusive: 16.4 µM [inhibitor, partial curve, poor fit]"}, {"smiles": "O=C(Cc1ccc([N+](=O)[O-])cc1)NCc1ccncc1", "Potency": "inactive"}, {"smiles": "CCC1(c2ccc(F)cc2)NC(=O)N(CC(=O)Nc2cccc(S(=O)(=O)N3CCCCC3)c2)C1=O", "note": "(configuration not stated)", "Potency": "inactive"}, {"smiles": "Cc1cc(C)cc(-n2ncc3c2CCCC3NC(=O)c2cc(C)n(C)n2)c1", "note": "(configuration not stated)", "Potency": "inactive"}, {"smiles": "CN(C(=O)c1ccccc1C(=O)OCC(=O)NCc1cccs1)C1CCCCC1", "Potency": "inactive"}, {"smiles": "Cc1cc(NC(=O)c2c(F)cccc2Cl)no1", "Potency": "inconclusive: 23.1 µM [activator, partial curve, poor fit]"}, {"smiles": "COc1cc2cnc(-c3ccsc3)cc2cc1OC", "Potency": "inconclusive: 14.6 µM [activator, partial curve, poor fit]"}, {"smiles": "Cc1ccccc1NC(=O)CCC(=O)OCC(=O)c1ccc(-c2ccccc2)cc1", "Potency": "inconclusive: 14.6 µM [activator, partial curve, poor fit]"}, {"smiles": "C=CCNC(=S)N/N=C/c1ccc(OCc2ccccc2)cc1", "Potency": "inconclusive: 5.62 µM [inhibitor, single point]"}, {"smiles": "CCOC(=O)c1sc2ncnc(N3CCN(C(=O)OCC)CC3)c2c1C", "Potency": "inconclusive: 16.4 µM [inhibitor, single point]"}, {"smiles": "O=C(NCc1ccccc1)C1=C[C@@H](C2CCCCC2)C[C@@H](OCc2ccc(CO)cc2)O1", "Potency": "inconclusive: 18.3 µM [inhibitor, single point]"}]}]}
